Experimental data: patent US20230193285, “BISPECIFIC PERSONALIZED APTAMERS” (Aummune Ltd., published 2023)

By UniProt entry, the sequences of proteins in these tests, tags left out. Residues count along the entry.
UniProt Q04721, 26-1677: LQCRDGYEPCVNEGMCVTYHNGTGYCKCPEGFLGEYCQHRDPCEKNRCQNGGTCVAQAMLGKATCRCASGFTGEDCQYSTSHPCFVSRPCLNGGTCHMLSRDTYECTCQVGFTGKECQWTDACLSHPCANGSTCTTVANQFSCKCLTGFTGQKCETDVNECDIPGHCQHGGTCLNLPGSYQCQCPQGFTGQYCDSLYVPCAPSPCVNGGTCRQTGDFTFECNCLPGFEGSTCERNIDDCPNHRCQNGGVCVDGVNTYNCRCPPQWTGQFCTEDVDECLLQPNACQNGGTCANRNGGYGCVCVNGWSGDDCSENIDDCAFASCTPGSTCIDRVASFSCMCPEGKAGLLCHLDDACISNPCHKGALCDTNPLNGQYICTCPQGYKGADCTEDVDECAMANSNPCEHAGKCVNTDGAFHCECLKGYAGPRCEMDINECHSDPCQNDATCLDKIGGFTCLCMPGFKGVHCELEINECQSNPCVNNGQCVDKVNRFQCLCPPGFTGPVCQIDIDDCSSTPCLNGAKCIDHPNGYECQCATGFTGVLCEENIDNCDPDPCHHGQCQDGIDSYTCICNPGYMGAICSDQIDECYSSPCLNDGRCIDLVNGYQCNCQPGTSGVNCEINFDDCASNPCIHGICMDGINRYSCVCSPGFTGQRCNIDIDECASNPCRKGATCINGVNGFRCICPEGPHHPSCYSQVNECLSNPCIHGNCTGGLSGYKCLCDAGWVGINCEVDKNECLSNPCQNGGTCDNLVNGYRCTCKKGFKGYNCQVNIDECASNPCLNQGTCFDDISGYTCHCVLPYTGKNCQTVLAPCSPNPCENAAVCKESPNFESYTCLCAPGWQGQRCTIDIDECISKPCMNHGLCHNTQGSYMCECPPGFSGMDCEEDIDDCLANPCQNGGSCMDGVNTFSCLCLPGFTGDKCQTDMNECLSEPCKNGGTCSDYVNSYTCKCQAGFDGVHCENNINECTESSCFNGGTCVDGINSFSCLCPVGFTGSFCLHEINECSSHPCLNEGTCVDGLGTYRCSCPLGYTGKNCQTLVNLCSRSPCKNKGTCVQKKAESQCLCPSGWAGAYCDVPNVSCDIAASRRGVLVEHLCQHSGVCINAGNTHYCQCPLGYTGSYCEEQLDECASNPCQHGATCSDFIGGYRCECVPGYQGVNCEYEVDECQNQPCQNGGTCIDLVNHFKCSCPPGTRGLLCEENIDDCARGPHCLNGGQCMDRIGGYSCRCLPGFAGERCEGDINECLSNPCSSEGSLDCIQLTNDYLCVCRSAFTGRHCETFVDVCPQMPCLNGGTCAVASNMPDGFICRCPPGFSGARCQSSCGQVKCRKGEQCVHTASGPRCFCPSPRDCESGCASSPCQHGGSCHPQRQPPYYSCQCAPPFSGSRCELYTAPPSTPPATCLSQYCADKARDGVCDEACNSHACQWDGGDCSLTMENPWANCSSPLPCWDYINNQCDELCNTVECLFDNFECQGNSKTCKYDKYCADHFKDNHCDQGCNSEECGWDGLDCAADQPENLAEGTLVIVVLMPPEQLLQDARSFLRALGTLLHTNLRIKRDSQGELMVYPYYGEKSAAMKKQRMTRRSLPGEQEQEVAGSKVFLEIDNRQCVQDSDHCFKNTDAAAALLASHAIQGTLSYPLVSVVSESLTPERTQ

What was measured:
KCNK17 (Homo sapiens) = molecular target: T1, KCNK17 (Homo sapiens) (UniProt Q96T54); experiment: flow cytometry; conditions: concentration-dependent binding well above vector control; protein on the cell surface; single-stranded DNA
T1 sequence (looked up, limits assumed): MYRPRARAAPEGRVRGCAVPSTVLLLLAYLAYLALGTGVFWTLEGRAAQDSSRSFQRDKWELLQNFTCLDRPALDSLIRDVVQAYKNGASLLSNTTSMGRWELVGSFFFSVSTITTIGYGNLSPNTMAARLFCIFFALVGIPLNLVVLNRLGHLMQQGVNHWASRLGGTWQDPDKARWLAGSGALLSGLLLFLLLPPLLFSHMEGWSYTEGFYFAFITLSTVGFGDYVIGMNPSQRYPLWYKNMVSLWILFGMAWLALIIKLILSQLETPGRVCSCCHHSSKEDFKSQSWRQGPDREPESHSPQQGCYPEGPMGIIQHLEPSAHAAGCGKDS

Notch2 (Homo sapiens) = Notch2 (Homo sapiens) (UniProt Q04721); experiment: flow cytometry; conditions: concentration-dependent binding well above vector control; protein on the cell surface; single-stranded DNA
[1] = tested on: IgG1 isotype control (Homo sapiens); experiment: SPR; conditions: non-specific IgG control protein; purified recombinant protein; protein details: InVivoMAb BE0297; single-stranded DNA
[2] = tested on: IgG1 isotype control (Homo sapiens); experiment: binding assay; conditions: PS on first five 5' nucleotides of CpG motif, HPLC size exclusion, negative control protein, purified recombinant protein, protein details: InVivoMAb BE0297, label: Cy5-CpG' complementary strand, single-stranded DNA

GCATACCTTTCGTATGCCTTTTTGACCCGTATTTTTGCCCTACCCTTCGG [CTL3]
binding result (KCNK17 (Homo sapiens)): binds | binding result (Notch2 (Homo sapiens)): binds

ATCGTATAAGGGCTGCTTAGGATTGCGATAATACGGTCAA [CS6]
binding result [1]: no binding

TCGTCGTCGCGGTTCGCGTCCGTATCGTATAAGGGCTGCTTAGGATTGCGATAATACGGTCAA [CpG1-CS6]
binding result ([2]; variant of CS6): no binding

TCGTCGTCGCGGTTCGCGTCCGCTTTTAGGTCTGCTTAGGATTGCGAAAAAAG [CpG1-CS8c]
binding result ([2]; variant of CpG1-CS8): no binding

TCGTCGTCGCGGTTCGCGTCCGCATTTCATAGGGCTGCTTAGGATTGCGAAGGTAATGCCAG [CpG1-CS7]
binding result [2]: no binding

The exact form of at least one protein or probe is not confirmed. For part of these data: Negatives hold for the conditions tested. For part of these data: Where cells or extracts were used, other partners may take part. For part of these data: Where a protein sequence is shown, tags need not be part of it.
